What is called AC50 is the concentration at which the activity in the assay is half-maximal.

This is one part of the list. Further columns of the screen follow, without active or inactive calls. Compounds called inactive in the main read-out are mostly missing here. The note in brackets gives the kind of curve behind each potency; many fits are weak.

One assay in a line: qHTS Assay for Modulators of Human Peripheral Myelin Protein 22 (PMP22) Expression/Activity (AID 1967). Particulars: Cell-based PMP22 reporter, dual-color luciferase ratio; measured here: green reporter channel AC50; mouse Pmp22 promoter in mouse Schwann cells. The gist of the method:
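Readout is the corrected green/red luminescence ratio after 24 h compound exposure, normalised to untreated cells (0%). Engineered MSC80 mouse Schwann cells express green luciferase from the mouse Pmp22 promoter and red luciferase from EF-alpha as internal control.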
(qHTS replaces the single test concentration by a dilution series.)
Regarding `Clc1ccccc1C(c1ccccc1)(c1ccccc1)n1ccnc1`, the AC50 was 47.8 µM [falling, partial curve].

Take `COc1ccccc1CNCCCCCCNCCCCCCCCNCCCCCCNCc1ccccc1OC`: the concentration at half-maximal activity (AC50) was 84.9 µM [falling, single point].

Regarding `CN(C)CCC=C1c2ccccc2C=Cc2ccccc21`, the AC50 is 37.9 µM [falling, partial curve].

With `Fc1ccc(C(OCCCc2cnc[nH]2)c2ccc(F)cc2)cc1`, the AC50 was 75.7 µM [falling, partial curve].

Turning to `NC(CO)C(=O)NNCc1ccc(O)c(O)c1O` (centres undefined), the AC50 was 84.9 µM [falling, single point].

`CN(C)CC[C@@H](c1ccc(Br)cc1)c1ccccn1`: the concentration at half-maximal activity (AC50) was 84.9 µM [falling, single point].

Take `COc1cccc(-c2cc(=O)c3ccccc3o2)c1N`: the AC50 was 0.379 µM [rising, full curve, poor fit].

Consider `CCc1c(C)[nH]c2c1C(=O)C(CN1CCOCC1)CC2` (centres undefined), for which the AC50 is 84.9 µM [falling, single point].

As for `CCc1cccc(N(C)C(N)=Nc2cccc3ccccc23)c1`, the AC50 is 60.1 µM [falling, partial curve].

Staying with this assay, now noted: Cell-based PMP22 reporter, dual-color luciferase ratio; measured here: red reporter channel AC50; EF-alpha promoter control reporter in MSC80 mouse Schwann cells.
Turning to `Clc1ccccc1C(c1ccccc1)(c1ccccc1)n1ccnc1`, the AC50 is 42.6 µM [falling, partial curve].

`COc1ccccc1CNCCCCCCNCCCCCCCCNCCCCCCNCc1ccccc1OC`: the AC50 is 67.5 µM [falling, partial curve].

For the molecule `CN(C)CCC=C1c2ccccc2C=Cc2ccccc21`, the AC50 was 47.8 µM [falling, partial curve].

For `NC(=NCc1ccccc1)NC(=O)c1nc(Cl)c(N)nc1N`, the AC50 is 53.6 µM [falling, partial curve, poor fit].

For `OC[C@H]1O[C@@H](n2cnc3c(Nc4ccccc4)ncnc32)[C@H](O)[C@H]1O`, the AC50 was 75.7 µM [falling, single point].

`COC(=O)[C@@H](N)Cc1ccc(O)c(O)c1`: the AC50 is 60.1 µM [falling, partial curve, poor fit].

As to `Fc1ccc(C(OCCCc2cnc[nH]2)c2ccc(F)cc2)cc1`, the AC50 was 84.9 µM [falling, partial curve].

Regarding `NC(CO)C(=O)NNCc1ccc(O)c(O)c1O` (centres undefined), the AC50 is 84.9 µM [falling, single point].

For `CN(C)CC[C@@H](c1ccc(Br)cc1)c1ccccn1`, the AC50 is 84.9 µM [falling, single point].

`CCCCS(=N)(=O)CC[C@H](N)C(=O)O` (some centres undefined): the AC50 is 84.9 µM [falling, single point].

With `CSc1nc(N)c2ncn([C@@H]3O[C@H](COP(=O)(O)OP(=O)(O)OP(=O)(O)O)[C@H](O)[C@H]3O)c2n1`, the concentration at half-maximal activity (AC50) was 84.9 µM [falling, single point].

As for `c1ccc2c(c1)CC(N1CCN(c3cccc4c3OCCO4)CC1)C2`, the AC50 was 23.9 µM [rising, single point].

As to `CC(O)[C@@H](O)[C@H]1CNc2nc(N)[nH]c(=O)c2N1` (some centres undefined), the AC50 was 84.9 µM [falling, single point].

Consider `C[C@]12CCC(=O)C=C1CC[C@@H]1[C@@H]2[C@@H](O)C[C@@]2(C)[C@H]1CC[C@]2(O)C(=O)COC(=O)CCC(=O)O`, for which the AC50 is 84.9 µM [falling, single point].

With `Cc1nc2c([nH]1)c(=O)n(C)c(=O)n2Cc1ccco1`, the AC50 is 84.9 µM [falling, single point].

For `Oc1cc(O)c2c(c1)O[C@H](c1ccc(O)c(O)c1)[C@@H](O)C2`, the AC50 was 84.9 µM [falling, single point].

As for `CCOC(=O)C12CC1/C(=N/O)c1ccccc1O2` (centres undefined), the half-maximal activity concentration (AC50) is 75.7 µM [falling, partial curve, poor fit].

`O=C(O)/C=C/c1ccc(O)c(O)c1`: the AC50 is 84.9 µM [falling, single point].

For `COc1cccc(-c2cc(=O)c3ccccc3o2)c1N`, the AC50 is 1.69 µM [rising, full curve].

Turning to `CN(C)C(N)=NCCC[C@H](N)C(=O)O`, the AC50 was 95.3 µM [falling, single point].

As to `CCc1cccc(N(C)C(N)=Nc2cccc3ccccc23)c1`, the AC50 is 67.5 µM [falling, partial curve].

In the case of `Oc1ccc(C2CNCCc3c2cc(O)c(O)c3Cl)cc1` (centres undefined), the AC50 is 84.9 µM [falling, single point].

Regarding `CC(/C=C/c1cccc(Oc2ccc(F)cc2)c1)N(O)C(N)=O` (centres undefined), the AC50 is 67.5 µM [falling, partial curve, poor fit].

With `CC(C)COCC(CN(Cc1ccccc1)c1ccccc1)N1CCCC1` (centres undefined), the AC50 is 84.9 µM [falling, single point].

As to `CCCCNc1ccc(C(=O)OCCN(C)C)cc1`, the AC50 was 3.01 µM [rising, full curve].

The values above are taken from PubChem BioAssay (NCATS).
